Results deposited as PubChem BioAssay AID1224826 (NIAID, 2016).

- Aim: 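Regulators of Tlr4 signalling leading to Tnf-alpha expression in macrophages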 (primary screen)
- System: RAW264.7 G9 macrophages from mouse bearing reporters for p65 (GFP) and the Tnf promoter (mCherry)
- Reagents: siRNA pool against mouse genes, 100 nM
- Duration: 16 h of LPS stimulation, after 2 days of siRNA transfection
- Treatment: bacterial lipopolysaccharide (Salmonella minnesota R595), 10 ng/ml
- Detection: 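Nuclear mCherry signal of the Tnf promoter reporter measured by imaging after background removal, scaled to each plate median and turned into robust z-scores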
- Direction: Tnf reporter robust z-score: higher = stronger Tnf promoter reporter signal after LPS; Tnf reporter intensity: higher = stronger Tnf promoter reporter signal
- Active means: 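Called active when robust z-score is at most -1.3, matching the median of the Tlr4 knock-down control, or over 3; control wells and wells with under 50 cells never active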
- Meaning of the calls: active = Tnf reporter clearly lowered or raised; inactive = no clear change in Tnf reporter
The deposit covers about 17,000 reagents; this is a part drawn at random. In the full data, about 1,110 (6.6%) got an active call. 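Active means lowered or raised reporter signal; replicate intensities are raw and not normalised per plate.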 Entries without a mark were called inactive. No sequences are given here.

gene,Tnf reporter robust z-score,fewer than 50 cells in well,"Tnf reporter intensity, replicate 1","Tnf reporter intensity, replicate 2"
Ca1 (GeneID 12346),-0.58,enough cells in well,112,137
Ap1m1 (GeneID 11767),0.15,enough cells in well,205,207
Tmem209 (GeneID 72649),-0.03,enough cells in well,263,64.9
Sinhcaf (GeneID 56306),1.96,enough cells in well,165,181
2810407A14Rik (GeneID 100039901),,fewer than 50 cells per well; well left out of calls,312,75.6
Mfsd1 (GeneID 66868),,fewer than 50 cells per well; well left out of calls,139,91.9
Hsf3 (GeneID 245525),-0.08,enough cells in well,188,139
Btrc (GeneID 12234),-0.53,enough cells in well,113,141
Zfp326 (GeneID 54367),0.29,enough cells in well,146,125
Dlg2 (GeneID 23859),-1.15,enough cells in well,114,102
Pcdhgb7 (GeneID 93704),-1.17,enough cells in well,77.9,91.2
Slc35f1 (GeneID 215085),,fewer than 50 cells per well; well left out of calls,60.3,155
Nkap (GeneID 67050),0.26,enough cells in well,241,77
Dicer1 (GeneID 192119),2.67,enough cells in well,318,243
Sgce (GeneID 20392),0.7,enough cells in well,366,248
Amy1 (GeneID 11722),-0.6,enough cells in well,184,130
Pygb (GeneID 110078),0.92,enough cells in well,159,181
Ghr (GeneID 14600),0.02,enough cells in well,243,250
F8a (GeneID 14070),1.43,enough cells in well,160,340
Zfp639 (GeneID 67778),0.15,enough cells in well,220,123
Sin3b (GeneID 20467),-0.33,enough cells in well,102,77
Or5t16 (GeneID 258584),-0.73,enough cells in well,167,92
Tor2a (GeneID 30933),-0.29,enough cells in well,107,101
Pea15a (GeneID 18611),0.49,enough cells in well,261,227
Rab32 (GeneID 67844),-1.12,enough cells in well,203,120
Vkorc1l1 (GeneID 69568),1.92,enough cells in well,193,111
Bcl11b (GeneID 58208),,fewer than 50 cells per well; well left out of calls,82,69.8

Laid out differently: entries from further up.
Ghr (GeneID 14600) | Tnf reporter robust z-score = 0.02; fewer than 50 cells in well = enough cells in well; Tnf reporter intensity, replicate 1 = 243; Tnf reporter intensity, replicate 2 = 250
F8a (GeneID 14070) | Tnf reporter robust z-score = 1.43; fewer than 50 cells in well = enough cells in well; Tnf reporter intensity, replicate 1 = 160; Tnf reporter intensity, replicate 2 = 340
Zfp639 (GeneID 67778) | Tnf reporter robust z-score = 0.15; fewer than 50 cells in well = enough cells in well; Tnf reporter intensity, replicate 1 = 220; Tnf reporter intensity, replicate 2 = 123
Sin3b (GeneID 20467) | Tnf reporter robust z-score = -0.33; fewer than 50 cells in well = enough cells in well; Tnf reporter intensity, replicate 1 = 102; Tnf reporter intensity, replicate 2 = 77
Or5t16 (GeneID 258584) | Tnf reporter robust z-score = -0.73; fewer than 50 cells in well = enough cells in well; Tnf reporter intensity, replicate 1 = 167; Tnf reporter intensity, replicate 2 = 92
Tor2a (GeneID 30933) | Tnf reporter robust z-score = -0.29; fewer than 50 cells in well = enough cells in well; Tnf reporter intensity, replicate 1 = 107; Tnf reporter intensity, replicate 2 = 101
Pea15a (GeneID 18611) | Tnf reporter robust z-score = 0.49; fewer than 50 cells in well = enough cells in well; Tnf reporter intensity, replicate 1 = 261; Tnf reporter intensity, replicate 2 = 227

The list goes on.
gene,Tnf reporter robust z-score,fewer than 50 cells in well,"Tnf reporter intensity, replicate 1","Tnf reporter intensity, replicate 2"
Pias1 (GeneID 56469),-0.42,enough cells in well,210,166
Limk1 (GeneID 16885),0.3,enough cells in well,219,174
Il1rap (GeneID 16180),-0.06,enough cells in well,264,126
Rhbdl1 (GeneID 214951),-1.48 (active),enough cells in well,65.5,62.9
Rarres2 (GeneID 71660),-1.1,enough cells in well,207,121
Wipf2 (GeneID 68524),-0.15,enough cells in well,184,67.9
Tma7 (GeneID 66167),,fewer than 50 cells per well; well left out of calls,49,16.5
Snf8 (GeneID 27681),-1.27,enough cells in well,82.8,124
Aptx (GeneID 66408),0.4,enough cells in well,183,202
Fam168a (GeneID 319604),0.91,enough cells in well,266,275
Naa80 (GeneID 56441),-0.13,enough cells in well,235,211
Nsun3 (GeneID 106338),-0.48,enough cells in well,163,119
Gcc1 (GeneID 74375),-0.07,enough cells in well,242,133
Or2z9 (GeneID 258532),-2.04 (active),enough cells in well,59.9,35.6
Eno1 (GeneID 13806),0.96,enough cells in well,286,324
Or10v1 (GeneID 258405),-1.03,enough cells in well,129,71
Chid1 (GeneID 68038),-0.46,enough cells in well,110,161
Defb13 (GeneID 246083),-1.45 (active),enough cells in well,124,59.8
Hpn (GeneID 15451),-1.33 (active),enough cells in well,136,90.1
Tex101 (GeneID 56746),,fewer than 50 cells per well; well left out of calls,109,93
Msh3 (GeneID 17686),0.61,enough cells in well,343,227
Elavl2 (GeneID 15569),0.81,enough cells in well,285,300
Ndnf (GeneID 68169),-1.01,enough cells in well,110,103
Inpp5j (GeneID 170835),0.08,enough cells in well,240,209
Armc7 (GeneID 276905),-0.03,enough cells in well,139,167
Abl1 (GeneID 11350),,fewer than 50 cells per well; well left out of calls,151,84.4
Dnajc16 (GeneID 214063),-0.87,enough cells in well,124,44.4
Atf5 (GeneID 107503),,fewer than 50 cells per well; well left out of calls,52.3,86.8
Fam3a (GeneID 66294),,fewer than 50 cells per well; well left out of calls,172,49.7
Plekhf2 (GeneID 71801),-0.59,enough cells in well,109,92.5
Ebf3 (GeneID 13593),-1,enough cells in well,120,79.3
